Test results taken from patent US20110166021A1, “Imidazole and Triazole Compounds, the Use Thereof and Preparations Containing These Compounds” (BASF SE, priority 2008, published 2011).
Some results were stated once for a whole list of compounds, not compound by compound.

Key:
Botrytis cinerea = assay: Activity against the gray mold pathogen Botrytis cinerea in the microtiter test; type: cell-based; conditions: active compound concentration of 31 ppm; measured at 405 nm on day 7 after inoculation; compared to active compound-free control
Septoria tritici = assay: Activity against the Septoria leaf blotch pathogen Septoria tritici in the microtiter test (Septtr); type: cell-based; conditions: active compound concentration of 31 ppm; measured at 405 nm on day 7 after inoculation; active compound-free control = 100%

| SMILES | relative growth in % of the pathogens (Botrytis cinerea) | relative growth in % of the pathogens (Septoria tritici) |
| --- | --- | --- |
| CC(C)(C)C(O)C(CC=CCOc1cccc(F)c1F)n1cncn1 (mixture of isomers) [I.A2a] | at most 1% | at most 14% |
| CC(C)(C)C(O)C(CC=CCOc1ccc(Cl)cc1Cl)n1cncn1 (mixture of isomers) [I.A4b] | at most 1% |  |
| CC(C)(C)C(O)C(CC=CCOc1ccc(F)c(Cl)c1)n1cncn1 (mixture of isomers) [I.A6b] | at most 1% |  |
| CC(C)(C)C(O)C(CC=CCOc1cc(F)ccc1F)n1cncn1 (mixture of isomers) [I.A10a] | at most 1% | at most 14% |
| CC(C)(C)C(O)C(C/C=C/COc1cccc(Cl)c1Cl)n1cncn1 (racemic) [I.A12] | at most 1% | at most 14% |
| CC(C)(C)C(O)C(C/C=C/COc1ccc(Cl)cc1F)n1cncn1 (racemic) [I.A13] | at most 1% | at most 14% |
| CC(C)(C)C(O)C(C/C=C/COc1cc(F)cc(F)c1)n1cncn1 (racemic) [I.A14] | at most 1% | at most 14% |
| CC(C)(C)C(O)C(C/C=C/COc1ccc(F)c(F)c1)n1cncn1 (stereo not drawn) [I.A1, (E)-8-(3,4-difluorophenoxy)-2,2-dimethyl-4-[1,2,4]triazol-1-yloct-6-en-3-ol] | at most 1% | at most 14% |
| CC(C)(C)C(O)C(CC=CCOc1c(F)cccc1F)n1cncn1 (stereo not drawn) [I.A3b] | at most 1% | at most 14% |
| CC(C)(C)C(O)C(CC=CCOc1ccc(Cl)cc1Cl)n1cncn1 (stereo not drawn) [I.A4a] |  | at most 14% |
| CC(C)(C)C(O)C(CC=CCOc1ccc(F)cc1F)n1cncn1 (stereo not drawn) [I.A5a] | at most 1% | at most 14% |
| CC(C)(C)C(O)C(CC=CCOc1ccc(F)c(Cl)c1)n1cncn1 (stereo not drawn) [I.A6a] |  | at most 14% |
| Cc1ccc(OCC=CCC(C(O)C(C)(C)C)n2cncn2)c(C)c1 (stereo not drawn) [I.A7a] | at most 1% | at most 14% |
| CC(C)(C)C(O)C(CC=CCOc1cc(Cl)ccc1F)n1cncn1 (stereo not drawn) [I.A8b] | at most 1% | at most 14% |
| CC(C)(C)C(O)C(CC=CCOc1cccc(Cl)c1F)n1cncn1 (stereo not drawn) [I.A9b] | at most 1% | at most 14% |
| CC(C)(C)C(O)C(CC=CCOc1c(F)cccc1Cl)n1cncn1 (stereo not drawn) [I.A11a] |  | at most 14% |
